This passage reports AC50 results from PubChem BioAssay AID493014 (National Center for Advancing Translational Sciences (NCATS), 2011).

A word on the AC50: it is the concentration giving half of the maximal activity seen.

The other results are listed elsewhere or left out. These are further read-outs of the screen, such as a control signal, another cell line or another target. No call is given for them. The list favours compounds with an active or inconclusive main result. Words in brackets tell the shape of the fitted curve; partial curves, single points and poor fits give uncertain potencies.

This test is described as follows: qHTS Assay to Find Inhibitors of Chronic Active B-Cell Receptor Signaling. The note with it: ABC-DLBCL IkBa-CBG/CBR reporter, luminescence ratio (green luciferase fused to IkBa over red control in TMD8 lymphoma cells), 4 h. The method in brief:
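Doxycycline induced both beetle luciferases in TMD8 lymphoma cells; IKK-driven degradation limits the IkappaBalpha-fused green signal, while red luminescence normalises for cell number and nonspecific effects. Compounds tested up to 46 uM, 4 hrs.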
In general terms: Quantitative high-throughput screening tests each substance at several concentrations.

Setting [1] is: measured here: CBR red luminescence, cell number.
Where [2] appears, read: measured here: IkBa-CBG green luminescence.

For the molecule `COc1ccccc1NC(=O)N1CCN(c2ccccc2F)CC1`, under setting [1], the AC50 is 4.61 µM [rising, full curve, poor fit].

In the case of `COc1cc(C2NCC(c3ccc(Cl)cc3Cl)c3c2[nH]c2ccccc32)cc(OC)c1OC` (configuration not stated), the AC50 under setting [1] was 29.1 µM [falling, single point].

Consider `Cc1cc(NC(=O)c2ccc(Br)c([N+](=O)[O-])c2)no1`, for which the AC50 under setting [1] is 5.62 µM [falling, partial curve, poor fit].

For the molecule `CSc1ccccc1C(=O)Nc1nccs1`, the half-maximal activity concentration (AC50) under setting [1] is 0.00461 µM [falling, full curve, poor fit].

As to `COC(=O)c1cc(=O)n(Cc2ccco2)c(=Nc2ccc(F)c(Cl)c2)s1`, the AC50 runs as follows: under setting [1], 6.51 µM [falling, partial curve, poor fit]; under setting [2], 11.6 µM [rising, partial curve, poor fit].

For the molecule `Cc1ccc2nc(SCc3nnc(-c4ccccc4Br)o3)[nH]c2c1`, under setting [1], the AC50 was 35.5 µM [falling, single point].

Turning to `CCn1c(/C(C#N)=C/c2ccccc2Cl)nc2ccccc21`, the AC50 under setting [1] is 11.2 µM [falling, partial curve].

As for `Cc1ccc(OCC(=O)Nc2ccc3c(c2)C(=O)NC3=O)cc1`, the AC50 under setting [1] is 12.6 µM [falling, partial curve, poor fit].

Consider `Nc1c(-c2ccccc2)cnn1-c1cccc(Cl)c1`, for which the AC50 under setting [1] was 11.2 µM [falling, partial curve].

`Cc1ccc(S(=O)(=O)N/N=C/c2ccccc2O)cc1[N+](=O)[O-]`: the AC50 under setting [1] is 15.8 µM [rising, partial curve, poor fit].

Regarding `C/C(=N\NC(=O)c1ccc(Cn2cc([N+](=O)[O-])cn2)o1)c1cccc(NC(=O)C(C)C)c1`, the AC50 under setting [1] was 32.6 µM [falling, single point].

As for `CCOC(=O)c1cccc(NC(=O)CSc2nc3cccnc3n2C)c1`, the AC50 under setting [1] was 29.1 µM [falling, single point].

For the molecule `CCN1CCc2c(sc(NC(=O)c3ccc4ccccc4c3)c2C(N)=O)C1`, under setting [1], the AC50 is 12.6 µM [falling, single point].

On to `COCCCNC(=O)Cn1nc(-c2cccc(OC)c2)ccc1=O`, for which the AC50 under setting [1] was 25.1 µM [falling, single point].

With `CC(C)NC(=O)/C(C#N)=C/c1cccc(NC(=O)c2ccccc2Cl)c1`, the AC50 under setting [1] was 14.6 µM [falling, partial curve, poor fit].

Turning to `COc1ccc(S(=O)(=O)N2CCOCC2)cc1NC(=O)COc1ccc2ccc(=O)oc2c1`, under setting [1], the AC50 is 32.6 µM [rising, single point].

As for `CCC(=O)Nc1ccc2c(c1)ncn2-c1ccccc1OC`, the AC50 under setting [1] is 4.47 µM [falling, partial curve, poor fit].

As for `Cc1cc(C(=O)OCC(=O)Nc2ccc(F)cc2F)c(C)o1`, the half-maximal activity concentration (AC50) under setting [1] was 3.55 µM [falling, full curve].

Consider `CCOc1ccc(NC(=O)CC2C(=O)N(C)C(=S)N2CCCc2ccccc2)cc1` (configuration not stated), for which, under setting [1], the concentration at half-maximal activity (AC50) is 16.4 µM [falling, single point].

In the case of `Cc1ccc2nc(-c3ccc(NC(=O)CN4CCN(c5ccccn5)CC4)cc3)sc2c1`, under setting [1], the half-maximal activity concentration (AC50) was 6.31 µM [rising, single point].

As to `CCc1ccccc1NC(=O)Nc1ccsc1C(=O)OC`, the AC50 under setting [1] is 12.6 µM [falling, partial curve, poor fit].

As to `COc1ccc(C(=O)NNC(=S)NC2CCCCC2)cc1OC`, under setting [1], the AC50 was 3.98 µM [falling, partial curve, poor fit].

Turning to `COc1ccc(-c2cc(C(=O)OCC(=O)N3CCCC3)c3ccccc3n2)cc1`, the AC50 under setting [1] was 1.3 µM [falling, partial curve].

For `CCOC(=O)C1CCC/C1=N\NC(=O)CN(c1cc(OC)ccc1OC)S(=O)(=O)c1ccccc1` (configuration not stated), under setting [1], the AC50 is 3.16 µM [falling, full curve, poor fit].

Turning to `CN(Cc1ccccc1)C(=O)c1ccc(NC(=O)c2ccccc2)cc1`, the AC50 under setting [1] was 22.4 µM [rising, single point].

Consider `N#CCC(=O)N/N=C/c1ccc(Cl)cc1`, for which, under setting [1], the AC50 is 8.91 µM [falling, partial curve, poor fit].

For `O=C(NC(=S)N1CCCC(C(F)(F)F)C1)c1ccc(F)cc1` (configuration not stated), under setting [1], the AC50 is 35.5 µM [rising, single point].

`COc1ccc(NC(=S)Nc2ncccc2C)cc1OC`: the concentration at half-maximal activity (AC50) under setting [1] is 11.2 µM [falling, single point].

As for `N#Cc1ccccc1NC(=O)COc1ccc2c(c1)OCO2`, the AC50 under setting [1] is 12.6 µM [falling, single point].

For the molecule `O=C(CSc1nnc(CCc2ccccc2)n1-c1ccc(Cl)cc1)NCc1ccccc1`, under setting [1], the AC50 is 18.4 µM [falling, single point].

For the molecule `CSCc1nnc(NC(=O)c2ccc(S(=O)(=O)N(CC(C)C)CC(C)C)cc2)o1`, the half-maximal activity concentration (AC50) under setting [1] is 12.6 µM [falling, single point].

In the case of `Nc1c(S(=O)(=O)c2cccc(Cl)c2)c2nc3ccccc3nc2n1CCN1CCOCC1`, the AC50 under setting [1] was 10 µM [falling, partial curve, poor fit].

For the molecule `COc1ccc(NC(=S)N(CCCN2CCCCCC2)Cc2cccs2)cc1`, under setting [1], the concentration at half-maximal activity (AC50) was 20 µM [falling, partial curve, poor fit].

Consider `O=C(Nc1nc2ccccc2[nH]1)c1ccc([N+](=O)[O-])cc1`, for which the AC50 under setting [1] was 1.58 µM [falling, full curve].

Consider `O=C(O)CSc1nc2ccc(C(=O)c3ccccc3)cc2[nH]1`, for which the AC50 under setting [2] was 2.51 µM [rising, partial curve, poor fit].

Consider `O=C(/C=N/O)Nc1ccc(F)cc1`, for which, under setting [1], the AC50 is 20 µM [falling, single point].

On to `COCCN1CCn2c(nc3cc(NC(=O)c4cccs4)ccc32)C1`, for which the AC50 under setting [1] was 9.2 µM [falling, partial curve].

With `Cc1sc(NC(=O)c2ccccc2F)c(CN2CCCCC2C)c1C` (configuration not stated), the concentration at half-maximal activity (AC50) under setting [1] was 25.9 µM [falling, single point].

Take `COCCCNC(NC(=O)c1ccc(OC)cc1)C(Cl)(Cl)Cl` (configuration not stated): the AC50 under setting [1] is 14.1 µM [rising, single point].

For `Cc1c([N+](=O)[O-])c(C(=O)Nc2ccc3c(c2)OCCO3)nn1C`, the AC50 under setting [1] was 20.6 µM [falling, partial curve, poor fit].

As for `COc1ccc(Cl)cc1NC(=O)Cn1cnc2c1c(=O)n(C)c(=O)n2C`, the AC50 under setting [1] was 6.31 µM [rising, single point].
